Assay results from PMC8639922, “KSHV transactivator-derived small peptide traps coactivators to attenuate MYC and inhibits leukemia and lymphoma cell growth” (Communications Biology, 2021).
No constants are given. Whether binding was seen depends on the method and setting. Binding seen in cells or lysates may run through a third protein. Some entries that bind do so weakly or less than the wild type.

Sequences of proteins named here, by UniProt entry; tags and fusion partners are left off.
UniProt F5HCV3: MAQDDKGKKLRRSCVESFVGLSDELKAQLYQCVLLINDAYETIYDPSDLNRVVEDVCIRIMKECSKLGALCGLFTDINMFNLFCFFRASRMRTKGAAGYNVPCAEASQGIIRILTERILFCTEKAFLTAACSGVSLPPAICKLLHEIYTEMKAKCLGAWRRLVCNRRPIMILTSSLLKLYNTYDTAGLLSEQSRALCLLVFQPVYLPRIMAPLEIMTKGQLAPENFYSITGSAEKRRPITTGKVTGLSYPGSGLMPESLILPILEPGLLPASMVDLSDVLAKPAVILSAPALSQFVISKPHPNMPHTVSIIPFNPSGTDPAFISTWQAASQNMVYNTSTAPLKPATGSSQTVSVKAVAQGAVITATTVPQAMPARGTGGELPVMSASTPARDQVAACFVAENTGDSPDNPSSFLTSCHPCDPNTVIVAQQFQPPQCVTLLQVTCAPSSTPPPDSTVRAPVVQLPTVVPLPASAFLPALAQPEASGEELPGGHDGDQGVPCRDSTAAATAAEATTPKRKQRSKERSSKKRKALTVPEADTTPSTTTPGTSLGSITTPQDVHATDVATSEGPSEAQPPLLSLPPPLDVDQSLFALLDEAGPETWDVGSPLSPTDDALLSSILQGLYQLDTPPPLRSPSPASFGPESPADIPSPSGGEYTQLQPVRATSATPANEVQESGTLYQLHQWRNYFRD
UniProt Q15596: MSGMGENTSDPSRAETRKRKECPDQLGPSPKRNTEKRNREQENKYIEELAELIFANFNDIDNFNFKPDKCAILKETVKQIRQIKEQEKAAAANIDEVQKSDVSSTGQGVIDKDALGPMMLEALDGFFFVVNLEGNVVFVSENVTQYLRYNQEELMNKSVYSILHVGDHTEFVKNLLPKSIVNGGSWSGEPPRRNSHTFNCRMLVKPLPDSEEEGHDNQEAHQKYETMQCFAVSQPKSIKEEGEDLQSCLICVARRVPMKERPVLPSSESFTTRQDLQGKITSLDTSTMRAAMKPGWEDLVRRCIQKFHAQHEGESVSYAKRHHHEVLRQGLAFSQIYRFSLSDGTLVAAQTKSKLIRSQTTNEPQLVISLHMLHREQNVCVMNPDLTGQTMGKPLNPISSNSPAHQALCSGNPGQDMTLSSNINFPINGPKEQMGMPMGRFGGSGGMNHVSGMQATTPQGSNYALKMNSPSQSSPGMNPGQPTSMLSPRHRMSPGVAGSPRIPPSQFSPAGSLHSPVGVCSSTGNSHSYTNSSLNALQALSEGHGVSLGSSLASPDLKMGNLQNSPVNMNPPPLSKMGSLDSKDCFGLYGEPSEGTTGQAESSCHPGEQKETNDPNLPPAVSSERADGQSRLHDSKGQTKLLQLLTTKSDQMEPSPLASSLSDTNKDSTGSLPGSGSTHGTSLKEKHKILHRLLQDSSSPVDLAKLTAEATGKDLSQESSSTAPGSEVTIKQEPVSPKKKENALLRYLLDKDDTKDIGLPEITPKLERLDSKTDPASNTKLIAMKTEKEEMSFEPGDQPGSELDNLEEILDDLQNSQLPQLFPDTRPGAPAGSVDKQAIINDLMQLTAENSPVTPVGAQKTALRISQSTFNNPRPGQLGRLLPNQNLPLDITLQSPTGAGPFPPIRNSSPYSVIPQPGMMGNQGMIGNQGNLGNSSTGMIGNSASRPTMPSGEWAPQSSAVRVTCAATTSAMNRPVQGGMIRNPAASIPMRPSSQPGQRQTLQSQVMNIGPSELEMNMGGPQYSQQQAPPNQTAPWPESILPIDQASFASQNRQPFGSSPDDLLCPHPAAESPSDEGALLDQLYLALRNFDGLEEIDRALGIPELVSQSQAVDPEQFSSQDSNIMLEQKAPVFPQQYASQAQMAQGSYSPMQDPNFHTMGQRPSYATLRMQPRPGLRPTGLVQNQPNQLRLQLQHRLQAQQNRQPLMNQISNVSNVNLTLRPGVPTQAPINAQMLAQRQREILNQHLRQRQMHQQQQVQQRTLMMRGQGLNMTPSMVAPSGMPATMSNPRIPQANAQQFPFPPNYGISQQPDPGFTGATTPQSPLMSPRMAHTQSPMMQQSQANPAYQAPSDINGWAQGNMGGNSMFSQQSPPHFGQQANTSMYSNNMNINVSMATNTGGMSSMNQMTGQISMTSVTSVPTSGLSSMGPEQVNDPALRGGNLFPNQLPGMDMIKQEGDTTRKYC

Molecular target: Flag-tagx3-HA-tagx3 (F3H3)-K-Rta, KSHV replication and transactivation protein (Kaposi's sarcoma-associated herpesvirus (human herpesvirus 8)) (UniProt F5HCV3)
Experiment: co-IP

Q: How did the binding turn out when “Nuclear receptor coactivator 2 (from UniProt Q15596 1-1464)” was run?
A: The binding was “binds”.
